This assay deals with dynamin-related protein 1 (Drp1) (mouse (endogenous in mouse cerebellum)) (UniProt Q8K1M6). The assay can be described thus: co-IP; mouse cerebellum total lysate (50 mM Tris-HCl pH 7.5, 150 mM NaCl, 1% Triton X-100), 800 ug protein, anti-Drp1 antibody overnight at 4°C, protein A/G beads, blot for Drp1 and Fis1; mice with TBI or sham injury, treated with P110 or control peptide TAT.

The chains behind the UniProt entries cited, without tags or fusion partners.
UniProt Q8K1M6: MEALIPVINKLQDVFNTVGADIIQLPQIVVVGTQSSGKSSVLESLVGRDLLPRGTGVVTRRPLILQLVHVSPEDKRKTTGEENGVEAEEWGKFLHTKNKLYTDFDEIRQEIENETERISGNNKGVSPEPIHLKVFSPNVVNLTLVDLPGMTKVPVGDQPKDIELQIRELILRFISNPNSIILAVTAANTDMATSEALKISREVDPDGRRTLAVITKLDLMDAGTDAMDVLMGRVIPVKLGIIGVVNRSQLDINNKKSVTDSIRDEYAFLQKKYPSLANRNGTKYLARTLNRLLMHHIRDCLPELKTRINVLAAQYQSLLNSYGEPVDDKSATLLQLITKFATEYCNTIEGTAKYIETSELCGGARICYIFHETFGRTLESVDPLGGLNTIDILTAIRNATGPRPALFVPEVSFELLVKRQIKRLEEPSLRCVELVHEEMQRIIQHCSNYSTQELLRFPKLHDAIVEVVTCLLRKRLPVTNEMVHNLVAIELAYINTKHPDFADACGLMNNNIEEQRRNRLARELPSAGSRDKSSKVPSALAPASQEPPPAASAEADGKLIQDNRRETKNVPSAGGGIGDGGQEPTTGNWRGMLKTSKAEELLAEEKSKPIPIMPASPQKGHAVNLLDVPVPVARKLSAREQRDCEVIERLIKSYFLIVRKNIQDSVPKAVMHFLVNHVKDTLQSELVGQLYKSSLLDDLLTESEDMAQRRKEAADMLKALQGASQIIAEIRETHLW

The text below walks through data of paper PMC11525032.

These are yes or no findings as the source states them, for the method shown. Binding seen in cells or lysates may run through a third protein. Some entries that bind do so weakly or less than the wild type.

B1: mitochondrial fission 1 protein (Fis1) (protein, UniProt Q9CQ92 1-152)
chain: MEAVLNELVSVEDLKNFERKFQSEQAAGSVSKSTQFEYAWCLVRSKYNEDIRRGIVLLEELLPKGSKEEQRDYVFYLAVGNYRLKEYEKALKYVRGLLQTEPQNNQAKELERLIDKAMKKDGLVGMAIVGGMALGVAGLAGLIGLAVSKSKS
As for B1, the binding result is given as “binds”.
